# Source: the supplement of paper PMC8728848
# This is one part of the list.
# Assays:
# Test in all cases: glycan array binding signal (z-score within array); higher = stronger binding
# Details in all cases: glycan notation: IUPAC condensed, linker removed
# [1] = target: Neu5Ac(a2-6)Gal(b1-4)GlcNAc(b1-3)[Neu5Ac(a2-6)Gal(b1-4)GlcNAc(b1-6)]GalNAc
# Method in brief: (§1)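 Arrays were curated from the Consortium for Functional Glycomics database, 3228 in total, and kept only where the protein sequence was available. Binding is expressed as a within-array Z-score. This score was averaged across arrays of the same protein sequence at different concentrations or buffers and across linkers, and negative values can be read as non-binding.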
# [2] = target: Neu5Ac(a2-6)Gal(b1-4)GlcNAc(b1-6)GalNAc
# Method in brief: as §1
# [3] = target: Neu5Ac(a2-6)Gal(b1-4)GlcNAc(b1-6)[Gal(b1-3)GlcNAc(b1-3)]Gal(b1-4)Glc
# Method in brief: as §1
# [4] = target: Neu5Ac(a2-6)Gal(b1-4)GlcNAc(b1-6)[Gal(b1-3)]GalNAc
# Method in brief: as §1
# [5] = target: Neu5Ac(a2-6)Gal(b1-4)GlcNAc6S
# Method in brief: as §1
# Neu5Ac(a2-6)GalNAc = target: Neu5Ac(a2-6)GalNAc
# Method in brief: as §1
# [6] = target: Neu5Ac(a2-6)GalNAc(b1-4)GlcNAc
# Method in brief: as §1
# [7] = target: Neu5Ac(a2-6)GalNAc(b1-4)GlcNAc6S
# Method in brief: as §1
# [8] = target: Neu5Ac(a2-6)GlcNAc(b1-4)GlcNAc
# Method in brief: as §1
# [9] = target: Neu5Ac(a2-6)GlcNAc(b1-4)GlcNAc(b1-4)GlcNAc
# Method in brief: as §1
# Neu5Ac(a2-8)Neu5Ac = target: Neu5Ac(a2-8)Neu5Ac
# Method in brief: as §1
# [10] = target: Neu5Ac(a2-8)Neu5Ac(a2-3)Gal(b1-3)GalNAc(b1-4)[Neu5Ac(a2-3)]Gal(b1-4)Glc
# Method in brief: as §1
# [11] = target: Neu5Ac(a2-8)Neu5Ac(a2-3)Gal(b1-3)GalNAc(b1-4)[Neu5Ac(a2-8)Neu5Ac(a2-3)]Gal(b1-4)Glc
# Method in brief: as §1
# [12] = target: Neu5Ac(a2-8)Neu5Ac(a2-3)Gal(b1-4)Glc
# Method in brief: as §1
# [13] = target: Neu5Ac(a2-8)Neu5Ac(a2-3)Gal(b1-4)GlcNAc
# Method in brief: as §1
# [14] = target: Neu5Ac(a2-8)Neu5Ac(a2-3)[Gal(b1-3)GalNAc(b1-4)]Gal(b1-4)Glc
# Method in brief: as §1
# [15] = target: Neu5Ac(a2-8)Neu5Ac(a2-3)[GalNAc(b1-4)]Gal(b1-4)Glc
# Method in brief: as §1
# [16] = target: Neu5Ac(a2-8)Neu5Ac(a2-8)Neu5Ac
# Method in brief: as §1
# [17] = target: Neu5Ac(a2-8)Neu5Ac(a2-8)Neu5Ac(a2-3)Gal(b1-4)Glc
# Method in brief: as §1
# [18] = target: Neu5Ac(a2-8)Neu5Ac(a2-8)Neu5Ac(a2-3)[Gal(b1-3)GalNAc(b1-4)]Gal(b1-4)Glc
# Method in brief: as §1
# [19] = target: Neu5Ac(a2-8)Neu5Ac(a2-8)Neu5Ac(a2-3)[GalNAc(b1-4)]Gal(b1-4)Glc
# Method in brief: as §1
# [20] = target: Neu5Ac(a2-8)Neu5Ac(a2-8)Neu5Ac(a2-8)Neu5Ac(a2-3)[GalNAc(b1-4)]Gal(b1-4)Glc
# Method in brief: as §1
# [21] = target: Neu5Ac(a2-8)Neu5Gc(a2-3)Gal(b1-4)GlcNAc
# Method in brief: as §1
# [22] = target: Neu5Ac(b2-6)Gal(b1-4)GlcNAc
# Method in brief: as §1
# Neu5Ac(b2-6)GalNAc = target: Neu5Ac(b2-6)GalNAc
# Method in brief: as §1
# [23] = target: Neu5Ac9Ac(a2-3)Gal(b1-3)GlcNAc
# Method in brief: as §1
# [24] = target: Neu5Ac9Ac(a2-3)Gal(b1-4)GlcNAc
# Method in brief: as §1
# [25] = target: Neu5Ac9Ac(a2-6)Gal(b1-4)GlcNAc
# Method in brief: as §1
# [26] = target: Neu5Gc(a2-3)Gal(b1-3)GlcNAc
# Method in brief: as §1
# [27] = target: Neu5Gc(a2-3)Gal(b1-3)[Fuc(a1-4)]GlcNAc
# Method in brief: as §1
# Neu5Gc(a2-3)Gal(b1-4)Glc = target: Neu5Gc(a2-3)Gal(b1-4)Glc
# Method in brief: as §1
# [28] = target: Neu5Gc(a2-3)Gal(b1-4)GlcNAc
# Method in brief: as §1
# [29] = target: Neu5Gc(a2-3)Gal(b1-4)GlcNAc(b1-3)Gal(b1-4)GlcNAc(b1-2)Man(a1-3)[Neu5Gc(a2-3)Gal(b1-4)GlcNAc(b1-3)Gal(b1-4)GlcNAc(b1-2)Man(a1-6)]Man(b1-4)GlcNAc(b1-4)GlcNAc
# Method in brief: as §1
# [30] = target: Neu5Gc(a2-3)Gal(b1-4)[Fuc(a1-3)]GlcNAc
# Method in brief: as §1
# [31] = target: Neu5Gc(a2-6)Gal(b1-4)GlcNAc
# Method in brief: as §1
# Neu5Gc(a2-6)GalNAc = target: Neu5Gc(a2-6)GalNAc
# Method in brief: as §1
# [32] = target: Neu5Gc(a2-8)Neu5Ac(a2-3)Gal(b1-4)GlcNAc
# Method in brief: as §1
# [33] = target: Neu5Gc(a2-8)Neu5Gc(a2-3)Gal(b1-4)GlcNAc
# Method in brief: as §1
binder,measurement,setting,value
"AT5G24760(45) (Arabidopsis thaliana), Q8LEB2 (protein) MSASSSSFEQPQVITCNAAVAWRAGEPLVMEEVEVSPPQPLEIRIKVVCTSLCRSDLSAWESQSLLPRIFGHEAAGIVESIGEGVTEFEKGDHVLAVFTGECGSCRHCISGKSNMCQVLGMERKGLMHSDQKTRFSIKGKPVYHYCAVSSFSEYTVVHSGCAVKVDPLAPLHKICLLSCGVAAGLGAAWNVADVQKGSSVVIFGLGTVGLSVAQGAKLRGAAQILGVDINPAKAEQAKTFGVTDFINSNDLSEPIPQVIKRMTGGGADFSFECVGDTGIATTALQSCSDGWGMTVTLGVPKAKPEVSAHYGLFLSGKSLKGTLFGGWKPKSDLPSLIDKYMNKEIMIDEFITHNLSFDEINKAFVLMREGKCLRCVLHMPK",glycan array binding signal (z-score),[1],-1.08
same,glycan array binding signal (z-score),[2],0.599
same,glycan array binding signal (z-score),[3],0.133
same,glycan array binding signal (z-score),[4],-0.895
same,glycan array binding signal (z-score),[5],0.165
same,glycan array binding signal (z-score),Neu5Ac(a2-6)GalNAc,0.118
same,glycan array binding signal (z-score),[6],-0.345
same,glycan array binding signal (z-score),[7],-0.585
same,glycan array binding signal (z-score),[8],-0.617
same,glycan array binding signal (z-score),[9],-0.415
same,glycan array binding signal (z-score),Neu5Ac(a2-8)Neu5Ac,-0.417
same,glycan array binding signal (z-score),[10],-0.193
same,glycan array binding signal (z-score),[11],0.742
same,glycan array binding signal (z-score),[12],-0.912
same,glycan array binding signal (z-score),[13],-0.977
same,glycan array binding signal (z-score),[14],-0.745
same,glycan array binding signal (z-score),[15],-0.388
same,glycan array binding signal (z-score),[16],-0.52
same,glycan array binding signal (z-score),[17],-0.582
same,glycan array binding signal (z-score),[18],0.125
same,glycan array binding signal (z-score),[19],-0.3
same,glycan array binding signal (z-score),[20],-0.891
same,glycan array binding signal (z-score),[21],-0.69
same,glycan array binding signal (z-score),[22],0.859
same,glycan array binding signal (z-score),Neu5Ac(b2-6)GalNAc,-0.023
same,glycan array binding signal (z-score),[23],-0.638
same,glycan array binding signal (z-score),[24],-0.392
same,glycan array binding signal (z-score),[25],0.139
same,glycan array binding signal (z-score),[26],1.13
same,glycan array binding signal (z-score),[27],-0.429
same,glycan array binding signal (z-score),Neu5Gc(a2-3)Gal(b1-4)Glc,0.633
same,glycan array binding signal (z-score),[28],-0.402
same,glycan array binding signal (z-score),[29],-0.38
same,glycan array binding signal (z-score),[30],-0.203
same,glycan array binding signal (z-score),[31],0.288
same,glycan array binding signal (z-score),Neu5Gc(a2-6)GalNAc,-0.275
same,glycan array binding signal (z-score),[32],-1.3
same,glycan array binding signal (z-score),[33],-0.657

# Copied from the listing (three entries):
binder,measurement,setting,value
"AT5G24760(45) (Arabidopsis thaliana), Q8LEB2 (protein) MSASSSSFEQPQVITCNAAVAWRAGEPLVMEEVEVSPPQPLEIRIKVVCTSLCRSDLSAWESQSLLPRIFGHEAAGIVESIGEGVTEFEKGDHVLAVFTGECGSCRHCISGKSNMCQVLGMERKGLMHSDQKTRFSIKGKPVYHYCAVSSFSEYTVVHSGCAVKVDPLAPLHKICLLSCGVAAGLGAAWNVADVQKGSSVVIFGLGTVGLSVAQGAKLRGAAQILGVDINPAKAEQAKTFGVTDFINSNDLSEPIPQVIKRMTGGGADFSFECVGDTGIATTALQSCSDGWGMTVTLGVPKAKPEVSAHYGLFLSGKSLKGTLFGGWKPKSDLPSLIDKYMNKEIMIDEFITHNLSFDEINKAFVLMREGKCLRCVLHMPK",glycan array binding signal (z-score),[6],-0.345
same,glycan array binding signal (z-score),[7],-0.585
same,glycan array binding signal (z-score),[8],-0.617
